Among the data in publication PMC5451212, “RISC-interacting clearing 3’- 5’ exoribonucleases (RICEs) degrade uridylated cleavage fragments to maintain functional RISC in Arabidopsis thaliana” (eLife, 2017) are binding values, retold here.

Like-named read-outs stand apart in the source and are kept apart here. These are yes or no findings as the source states them, for the method shown. Binding seen in cells or lysates may run through a third protein. These calls come from enrichment with a bait or labelling near it, and not all partners need be listed. Sequences can lack the tags named with a protein.

In test [1] the target is T1, Flag-4Myc-AGO10 (A. thaliana) (UniProt Q9XGW1).
T1 sequence: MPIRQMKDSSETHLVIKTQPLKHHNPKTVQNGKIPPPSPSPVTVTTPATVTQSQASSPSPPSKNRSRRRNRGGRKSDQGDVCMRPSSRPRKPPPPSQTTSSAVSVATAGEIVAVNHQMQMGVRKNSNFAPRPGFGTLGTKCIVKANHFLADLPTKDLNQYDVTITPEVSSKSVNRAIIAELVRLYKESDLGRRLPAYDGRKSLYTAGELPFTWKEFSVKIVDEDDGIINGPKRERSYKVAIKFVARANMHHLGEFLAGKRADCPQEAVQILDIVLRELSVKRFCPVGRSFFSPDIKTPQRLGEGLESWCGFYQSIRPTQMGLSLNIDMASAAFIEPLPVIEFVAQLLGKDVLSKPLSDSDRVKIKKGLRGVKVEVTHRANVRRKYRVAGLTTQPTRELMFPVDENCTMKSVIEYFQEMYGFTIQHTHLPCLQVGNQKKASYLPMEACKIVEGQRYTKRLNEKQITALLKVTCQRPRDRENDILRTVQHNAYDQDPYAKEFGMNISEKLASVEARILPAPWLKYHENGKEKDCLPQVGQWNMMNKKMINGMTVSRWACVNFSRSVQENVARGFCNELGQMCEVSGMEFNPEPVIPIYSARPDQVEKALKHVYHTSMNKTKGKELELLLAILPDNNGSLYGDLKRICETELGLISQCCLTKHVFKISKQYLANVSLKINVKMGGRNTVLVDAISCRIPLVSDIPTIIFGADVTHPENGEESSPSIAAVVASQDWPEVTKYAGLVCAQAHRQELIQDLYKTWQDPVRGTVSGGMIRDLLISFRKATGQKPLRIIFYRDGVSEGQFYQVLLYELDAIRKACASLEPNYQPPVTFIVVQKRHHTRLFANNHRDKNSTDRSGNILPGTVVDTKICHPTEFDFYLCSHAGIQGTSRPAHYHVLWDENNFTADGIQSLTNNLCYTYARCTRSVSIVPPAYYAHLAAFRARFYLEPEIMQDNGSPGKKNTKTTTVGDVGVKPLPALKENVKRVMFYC
The test is described as follows: affinity purification with mass spectrometry; Flag-4Myc-AGO10 from transgenic A. thaliana MM1 suspension cells; two-step IP (anti-Flag M2 magnetic beads, 3XFlag peptide elution, anti-Myc agarose), 20 mM Tris-HCl pH 7.5, 150 mM NaCl, 4°C; bands absent from the control IP of non-transgenic cells analysed by MS.

The target in test [2] is T1, Flag-4Myc-AGO10 (A. thaliana). The test is described as above. The source holds these as a separate data set.

For the molecule “HSP90 (A. thaliana (endogenous in MM1 cells))”, in test [1], the binding result is “binds”.

B1: RICE1 (At3g11770), endogenous or untagged overexpressed (protein, UniProt Q9SF21 1-200)
chain: MASFDGQGFMMVDNSWVQTKAIDVESTTDISPYLSKILEDSVWNGNRSIVFDVYWDVKSVSTKSEWRLCSVKFSTKNFCLFLRLPNPFCDNLKDLYRFFASKFVTFVGVQIQEDLALLKENHGIVIRSSLEIGKLAAKARGTPIVEFLGTRELAHKILWYDMSRLDSIQSKWDEASSNDRLEAAAIEGWLIFNVYDQLQQ
Regarding B1, the binding entry in test [2] is listed as “binds”.
